Measured values from the supplement of paper PMC10849652.
The other results are listed elsewhere or left out.

The chains behind the UniProt entries cited, without tags or fusion partners. Where a name states a change or a piece, a line headed by the entry shows the natural chain unless it says otherwise.
UniProt Q01082, whole entry, looked up: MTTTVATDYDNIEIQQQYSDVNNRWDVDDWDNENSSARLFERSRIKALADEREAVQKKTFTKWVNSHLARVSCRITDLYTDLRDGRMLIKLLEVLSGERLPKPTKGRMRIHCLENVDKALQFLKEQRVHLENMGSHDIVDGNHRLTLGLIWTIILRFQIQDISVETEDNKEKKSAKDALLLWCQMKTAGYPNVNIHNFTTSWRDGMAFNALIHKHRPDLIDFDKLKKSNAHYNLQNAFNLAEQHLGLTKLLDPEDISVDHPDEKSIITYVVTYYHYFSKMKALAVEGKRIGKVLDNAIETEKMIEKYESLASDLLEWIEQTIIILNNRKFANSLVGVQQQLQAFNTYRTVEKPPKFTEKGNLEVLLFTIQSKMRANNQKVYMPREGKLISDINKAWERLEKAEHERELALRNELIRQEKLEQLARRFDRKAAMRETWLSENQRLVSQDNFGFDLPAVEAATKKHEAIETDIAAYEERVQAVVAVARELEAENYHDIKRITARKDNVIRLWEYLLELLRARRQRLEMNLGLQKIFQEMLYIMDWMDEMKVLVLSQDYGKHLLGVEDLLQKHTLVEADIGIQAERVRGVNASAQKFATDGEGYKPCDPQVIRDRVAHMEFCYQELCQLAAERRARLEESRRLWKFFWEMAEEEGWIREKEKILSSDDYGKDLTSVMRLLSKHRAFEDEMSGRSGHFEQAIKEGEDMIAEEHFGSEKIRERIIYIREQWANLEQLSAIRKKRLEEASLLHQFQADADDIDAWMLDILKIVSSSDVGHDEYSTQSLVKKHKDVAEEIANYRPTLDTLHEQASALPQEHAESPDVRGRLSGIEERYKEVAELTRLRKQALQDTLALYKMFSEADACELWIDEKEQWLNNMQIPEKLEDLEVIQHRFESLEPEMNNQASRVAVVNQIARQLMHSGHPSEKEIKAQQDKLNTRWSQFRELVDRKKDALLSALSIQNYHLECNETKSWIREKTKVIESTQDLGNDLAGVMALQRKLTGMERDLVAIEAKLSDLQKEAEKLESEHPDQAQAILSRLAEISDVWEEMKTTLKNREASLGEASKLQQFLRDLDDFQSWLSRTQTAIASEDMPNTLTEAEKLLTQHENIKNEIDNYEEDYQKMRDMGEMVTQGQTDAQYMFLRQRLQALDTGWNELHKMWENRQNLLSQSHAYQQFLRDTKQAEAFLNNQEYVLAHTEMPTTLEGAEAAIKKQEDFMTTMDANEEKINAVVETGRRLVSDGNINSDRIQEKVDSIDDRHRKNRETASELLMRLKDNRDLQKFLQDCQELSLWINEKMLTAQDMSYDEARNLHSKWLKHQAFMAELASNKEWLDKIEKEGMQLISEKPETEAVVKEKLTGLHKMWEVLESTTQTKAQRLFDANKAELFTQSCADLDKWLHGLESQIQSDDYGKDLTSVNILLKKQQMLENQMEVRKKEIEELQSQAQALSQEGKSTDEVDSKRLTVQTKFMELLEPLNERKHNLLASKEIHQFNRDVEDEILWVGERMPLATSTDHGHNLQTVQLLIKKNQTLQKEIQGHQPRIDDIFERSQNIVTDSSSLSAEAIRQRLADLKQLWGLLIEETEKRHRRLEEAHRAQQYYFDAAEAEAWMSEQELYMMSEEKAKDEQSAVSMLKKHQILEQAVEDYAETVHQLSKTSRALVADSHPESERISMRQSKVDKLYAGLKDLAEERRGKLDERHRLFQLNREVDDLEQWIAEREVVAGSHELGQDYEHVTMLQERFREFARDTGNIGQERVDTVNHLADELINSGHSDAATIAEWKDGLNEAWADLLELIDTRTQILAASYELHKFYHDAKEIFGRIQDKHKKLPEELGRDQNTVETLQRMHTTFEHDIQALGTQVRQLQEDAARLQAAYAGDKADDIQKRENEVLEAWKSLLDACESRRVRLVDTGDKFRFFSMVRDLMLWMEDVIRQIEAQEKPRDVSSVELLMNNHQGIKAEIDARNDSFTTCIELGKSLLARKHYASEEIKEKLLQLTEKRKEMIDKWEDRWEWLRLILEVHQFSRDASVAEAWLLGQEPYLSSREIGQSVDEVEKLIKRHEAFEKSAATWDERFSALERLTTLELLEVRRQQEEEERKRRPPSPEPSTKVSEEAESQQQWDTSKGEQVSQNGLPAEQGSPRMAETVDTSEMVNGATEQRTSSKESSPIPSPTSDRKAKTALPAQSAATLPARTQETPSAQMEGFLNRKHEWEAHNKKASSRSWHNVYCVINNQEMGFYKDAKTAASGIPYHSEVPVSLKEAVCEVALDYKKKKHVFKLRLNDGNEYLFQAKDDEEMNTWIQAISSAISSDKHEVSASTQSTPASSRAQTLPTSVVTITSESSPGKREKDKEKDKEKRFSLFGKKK
UniProt Q9HD15: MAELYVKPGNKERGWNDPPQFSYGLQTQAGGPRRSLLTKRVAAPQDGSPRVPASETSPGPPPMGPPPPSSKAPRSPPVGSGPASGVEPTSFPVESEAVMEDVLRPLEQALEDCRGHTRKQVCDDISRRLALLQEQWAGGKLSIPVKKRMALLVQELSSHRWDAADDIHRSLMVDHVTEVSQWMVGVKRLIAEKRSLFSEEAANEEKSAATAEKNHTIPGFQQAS
UniProt Q9BXP5: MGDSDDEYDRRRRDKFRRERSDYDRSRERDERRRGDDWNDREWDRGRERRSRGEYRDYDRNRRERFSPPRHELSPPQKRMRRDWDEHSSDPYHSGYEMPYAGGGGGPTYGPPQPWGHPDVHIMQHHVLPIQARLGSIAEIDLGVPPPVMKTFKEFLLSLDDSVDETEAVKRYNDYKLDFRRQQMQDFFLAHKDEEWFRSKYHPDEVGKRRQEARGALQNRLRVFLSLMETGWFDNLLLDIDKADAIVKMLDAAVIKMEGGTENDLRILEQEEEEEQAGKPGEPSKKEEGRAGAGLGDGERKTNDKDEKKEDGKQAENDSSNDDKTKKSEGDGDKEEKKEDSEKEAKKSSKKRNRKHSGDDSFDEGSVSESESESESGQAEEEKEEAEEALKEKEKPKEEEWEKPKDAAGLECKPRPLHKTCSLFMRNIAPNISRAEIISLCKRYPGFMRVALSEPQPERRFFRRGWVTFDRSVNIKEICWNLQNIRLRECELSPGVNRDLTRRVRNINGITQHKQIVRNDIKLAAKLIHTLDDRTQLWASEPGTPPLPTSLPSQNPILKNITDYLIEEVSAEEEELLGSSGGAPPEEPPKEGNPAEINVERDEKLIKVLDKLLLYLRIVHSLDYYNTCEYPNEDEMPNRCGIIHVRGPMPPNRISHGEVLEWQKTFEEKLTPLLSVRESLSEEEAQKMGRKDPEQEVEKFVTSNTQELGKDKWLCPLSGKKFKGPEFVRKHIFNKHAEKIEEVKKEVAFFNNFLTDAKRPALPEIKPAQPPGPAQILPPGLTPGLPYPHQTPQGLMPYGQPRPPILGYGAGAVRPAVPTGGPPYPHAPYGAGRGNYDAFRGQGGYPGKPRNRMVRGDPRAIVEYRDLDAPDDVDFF
UniProt O95772: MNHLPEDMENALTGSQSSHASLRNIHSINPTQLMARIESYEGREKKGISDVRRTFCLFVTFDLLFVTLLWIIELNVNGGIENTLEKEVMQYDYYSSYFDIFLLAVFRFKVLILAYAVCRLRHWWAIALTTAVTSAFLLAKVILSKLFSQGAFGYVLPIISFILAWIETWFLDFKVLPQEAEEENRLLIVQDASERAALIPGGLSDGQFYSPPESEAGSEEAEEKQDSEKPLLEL
UniProt Q96SB4, whole entry, looked up: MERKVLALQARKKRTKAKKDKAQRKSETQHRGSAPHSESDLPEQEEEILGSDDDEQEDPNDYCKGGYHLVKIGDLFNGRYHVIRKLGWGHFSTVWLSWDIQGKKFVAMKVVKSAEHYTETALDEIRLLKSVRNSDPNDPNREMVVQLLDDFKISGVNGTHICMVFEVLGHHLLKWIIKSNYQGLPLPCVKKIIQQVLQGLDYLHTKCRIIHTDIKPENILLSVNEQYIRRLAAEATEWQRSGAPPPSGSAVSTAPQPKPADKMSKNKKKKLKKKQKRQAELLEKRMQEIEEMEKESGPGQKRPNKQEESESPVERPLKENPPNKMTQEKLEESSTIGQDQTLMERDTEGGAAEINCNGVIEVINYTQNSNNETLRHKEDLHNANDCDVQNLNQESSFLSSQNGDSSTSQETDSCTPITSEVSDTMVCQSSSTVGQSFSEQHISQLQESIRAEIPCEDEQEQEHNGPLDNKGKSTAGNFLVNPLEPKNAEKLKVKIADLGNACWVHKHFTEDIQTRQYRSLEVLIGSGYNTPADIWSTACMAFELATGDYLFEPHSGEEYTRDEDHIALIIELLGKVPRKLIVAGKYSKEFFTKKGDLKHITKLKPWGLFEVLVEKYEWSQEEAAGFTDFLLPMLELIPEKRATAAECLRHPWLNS
UniProt Q9BRL6: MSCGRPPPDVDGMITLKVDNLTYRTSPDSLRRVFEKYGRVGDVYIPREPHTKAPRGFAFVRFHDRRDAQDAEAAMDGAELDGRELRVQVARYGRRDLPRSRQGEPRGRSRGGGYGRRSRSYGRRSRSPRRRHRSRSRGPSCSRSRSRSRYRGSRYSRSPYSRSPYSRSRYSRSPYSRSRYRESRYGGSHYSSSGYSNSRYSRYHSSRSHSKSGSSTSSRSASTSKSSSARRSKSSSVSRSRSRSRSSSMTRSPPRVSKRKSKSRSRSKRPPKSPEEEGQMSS
UniProt P51571: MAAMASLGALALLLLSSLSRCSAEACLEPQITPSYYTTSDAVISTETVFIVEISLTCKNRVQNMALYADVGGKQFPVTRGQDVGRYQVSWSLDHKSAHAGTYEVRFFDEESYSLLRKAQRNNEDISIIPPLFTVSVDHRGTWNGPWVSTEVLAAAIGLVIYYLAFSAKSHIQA
UniProt Q9UHB9: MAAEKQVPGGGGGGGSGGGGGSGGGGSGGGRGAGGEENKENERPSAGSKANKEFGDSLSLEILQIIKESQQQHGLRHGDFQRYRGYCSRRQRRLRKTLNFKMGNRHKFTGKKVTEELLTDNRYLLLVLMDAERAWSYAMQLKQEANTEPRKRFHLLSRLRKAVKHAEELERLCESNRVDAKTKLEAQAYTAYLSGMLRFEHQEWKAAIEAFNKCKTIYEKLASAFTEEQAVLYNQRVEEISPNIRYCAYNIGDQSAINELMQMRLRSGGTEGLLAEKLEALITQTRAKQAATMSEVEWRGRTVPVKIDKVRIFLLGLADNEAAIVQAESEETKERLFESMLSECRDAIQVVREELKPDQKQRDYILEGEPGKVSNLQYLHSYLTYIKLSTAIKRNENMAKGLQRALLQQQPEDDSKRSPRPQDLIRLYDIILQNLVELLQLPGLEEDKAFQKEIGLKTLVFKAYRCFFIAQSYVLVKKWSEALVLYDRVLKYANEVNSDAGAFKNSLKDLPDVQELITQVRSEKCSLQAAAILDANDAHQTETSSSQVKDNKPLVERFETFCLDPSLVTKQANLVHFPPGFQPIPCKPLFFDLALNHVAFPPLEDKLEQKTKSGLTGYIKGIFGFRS

What was measured:
Assay in all cases: log2 fold change, soluble protein after heating vs DMSO (PISA); higher = thermal stabilisation; K562 lysate, 10 uM; active = over 0.2 and 3.5 SD of the protein, either way, in both replicates (recomputed)
[1] = compound: NCC(=O)Nc1ccc(-n2nc(C(F)(F)F)cc2-c2ccc3c(ccc4ccccc43)c2)cc1
Method in brief: (§1)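 To prepare the extract, K562 pellets were dounce-homogenised in PBS pH 7.4 with 1 mM MgCl2, giving crude material at 1 mg/mL protein. This was treated with 10 μM compound for 30 min, then heated in aliquots for 3 min over 48°C-58°C before pooling and addition of NP-40 to 0.5% at 4°C. Centrifugation at 21,000xg for 90 min left soluble protein in the supernatant, which TMTpro 16plex LC-MS/MS quantified with equalised channel sums. Results are log-two fold changes in thermal stability compared with solvent controls, from duplicates.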

[2] = compound: O=C(CCCCCCC(=O)Nc1ccccc1)NO [vorinostat]
Method in brief: as §1

[3] = compound: O=C(O)c1ccc2c(c1)nc(Nc1cccc(Cl)c1)c1ccncc12 [silmitasertib]
Method in brief: as §1

[4] = compound: O=C1NC(=O)C(c2cnc3ccccn23)=C1c1cn2c3c(cc(F)cc13)CN(C(=O)N1CCCCC1)CC2
Method in brief: as §1

[5] = compound: c1cn2cc(-c3ccc4cn[nH]c4c3)nc(Nc3ccc(N4CCOCC4)cc3)c2n1 [entospletinib]
Method in brief: as §1

SPTBN1 (UniProt Q01082)
log2 fold change [1]: inactive: -0.014
log2 fold change [2]: inactive: 0.026
log2 fold change [3]: inactive: 0.001
log2 fold change [4]: inactive: -0.006
log2 fold change [5]: inactive: 0.022

SRA1 (UniProt Q9HD15)
log2 fold change [1]: inactive: -0.005
log2 fold change [2]: inactive: 0.112
log2 fold change [3]: inactive: 0.007
log2 fold change [4]: inactive: -0.002
log2 fold change [5]: inactive: -0.003

SRRT (UniProt Q9BXP5)
log2 fold change [1]: inactive: -0.036
log2 fold change [2]: active: -0.373
log2 fold change [3]: inactive: 0.044
log2 fold change [4]: inactive: -0.008
log2 fold change [5]: inactive: 0.032

SSB (UniProt E7ERC4)
log2 fold change [1]: inactive: -0.063
log2 fold change [2]: inactive: 0.012
log2 fold change [3]: inactive: 0.105
log2 fold change [4]: inactive: -0.11
log2 fold change [5]: inactive: -0.092

STARD3NL (UniProt O95772)
log2 fold change [1]: inactive: -0.015
log2 fold change [2]: inactive: 0.095
log2 fold change [3]: inactive: 0.059
log2 fold change [4]: inactive: -0.036
log2 fold change [5]: inactive: -0.037

SRPK1 (UniProt Q96SB4)
log2 fold change [1]: inactive: -0.043
log2 fold change [2]: inactive: -0.172
log2 fold change [3]: inactive: 0.119
log2 fold change [4]: inactive: 0
log2 fold change [5]: inactive: 0.012

SRSF8 (UniProt Q9BRL6)
log2 fold change [1]: inactive: 0
log2 fold change [2]: inactive: 0.14
log2 fold change [3]: inactive: 0.008
log2 fold change [4]: inactive: -0.022
log2 fold change [5]: inactive: -0.015

SSR4 (UniProt P51571)
log2 fold change [1]: inactive: -0.006
log2 fold change [2]: inactive: 0.11
log2 fold change [3]: inactive: -0.013
log2 fold change [4]: inactive: -0.003
log2 fold change [5]: inactive: 0.011

SRP68 (UniProt Q9UHB9)
log2 fold change [1]: inactive: -0.038
log2 fold change [2]: inactive: -0.206
log2 fold change [3]: inactive: 0.028
log2 fold change [4]: inactive: -0.02
log2 fold change [5]: inactive: 0.006
